Reference: paper PMC11821526
Like-named read-outs stand apart in the source and are kept apart here. These are yes or no findings as the source states them, for the method shown. Binding seen in cells or lysates may run through a third protein. A yes stands for co-enrichment or nearness to the bait. Other partners may have been found. For some of these results: A no says only that the protein was not detected with the bait.

By UniProt entry, the sequences of proteins in these tests, tags left out. Where a name states a change or a piece, a line headed by the entry shows the natural chain unless it says otherwise.
UniProt Q5XUX0: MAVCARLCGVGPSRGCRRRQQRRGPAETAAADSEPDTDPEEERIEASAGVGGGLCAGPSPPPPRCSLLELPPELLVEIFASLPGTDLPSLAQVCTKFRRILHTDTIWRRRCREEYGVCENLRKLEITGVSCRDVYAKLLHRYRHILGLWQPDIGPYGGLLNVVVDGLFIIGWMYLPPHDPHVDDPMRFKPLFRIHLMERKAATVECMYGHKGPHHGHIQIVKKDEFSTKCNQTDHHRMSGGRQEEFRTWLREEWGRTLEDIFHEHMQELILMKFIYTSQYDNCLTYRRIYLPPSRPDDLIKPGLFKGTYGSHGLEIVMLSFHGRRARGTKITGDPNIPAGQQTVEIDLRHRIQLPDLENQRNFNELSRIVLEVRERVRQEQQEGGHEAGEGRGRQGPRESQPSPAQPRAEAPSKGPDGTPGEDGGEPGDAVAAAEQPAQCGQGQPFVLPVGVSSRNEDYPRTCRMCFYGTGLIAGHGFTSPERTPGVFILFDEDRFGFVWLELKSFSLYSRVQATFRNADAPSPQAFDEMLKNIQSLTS
UniProt P15104: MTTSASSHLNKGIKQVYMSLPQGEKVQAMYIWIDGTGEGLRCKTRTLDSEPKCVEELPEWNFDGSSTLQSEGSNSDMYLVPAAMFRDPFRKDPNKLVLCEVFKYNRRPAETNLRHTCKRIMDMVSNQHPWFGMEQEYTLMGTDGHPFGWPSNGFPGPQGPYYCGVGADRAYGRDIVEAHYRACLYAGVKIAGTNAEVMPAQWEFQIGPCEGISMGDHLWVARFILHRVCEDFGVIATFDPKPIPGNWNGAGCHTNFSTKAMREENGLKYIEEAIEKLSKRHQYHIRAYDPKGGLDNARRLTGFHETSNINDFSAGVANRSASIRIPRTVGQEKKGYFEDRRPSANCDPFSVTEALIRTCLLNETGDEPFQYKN
UniProt Q96NC0: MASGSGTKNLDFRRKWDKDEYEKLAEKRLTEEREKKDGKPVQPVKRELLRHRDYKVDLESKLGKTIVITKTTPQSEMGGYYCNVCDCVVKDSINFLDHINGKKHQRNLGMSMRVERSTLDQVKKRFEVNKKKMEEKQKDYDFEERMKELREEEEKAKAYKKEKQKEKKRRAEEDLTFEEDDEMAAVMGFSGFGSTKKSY

Tests used:
Assay in all cases: affinity purification with mass spectrometry; HA–FBXO31(ΔF-box) or its D334N mutant stably expressed in FBXO31-knockout HEK293T cells; basal or 200 µM H2O2, with 500 nM epoxomicin; anti-HA magnetic beads, 300 mM NaCl, 50 mM Tris-HCl, 0.5% Igepal CA-630, 4 °C, 4 h; control: cells without bait cDNA
[1] = target: HA–FBXO31(ΔF-box) (human) (UniProt Q5XUX0)
[2] = target: HA–FBXO31(D334N,ΔF-box) (human) (UniProt Q5XUX0)
[3] = target: HA–FBXO31(D334N,ΔF-box) (human) (UniProt Q5XUX0); remark: listed apart in the source
[4] = target: HA–FBXO31(ΔF-box) (human) (UniProt Q5XUX0); remark: listed apart in the source

Molecule: GLUL (glutamine synthetase) (from UniProt P15104 1-373)
- binding [1]: binds

Molecule: ZMAT2 (from UniProt Q96NC0 1-199)
- binding [2]: binds

B1: SUGT1 (protein, UniProt Q9Y2Z0 1-365)
chain: MAAAAAGTATSQRFFQSFSDALIDEDPQAALEELTKALEQKPDDAQYYCQRAYCHILLGNYCVAVADAKKSLELNPNNSTAMLRKGICEYHEKNYAAALETFTEGQKLDIETGFHRVGQAGLQLLTSSDPPALDSQSAGITGADANFSVWIKRCQEAQNGSESEVWTHQSKIKYDWYQTESQVVITLMIKNVQKNDVNVEFSEKELSALVKLPSGEDYNLKLELLHPIIPEQSTFKVLSTKIEIKLKKPEAVRWEKLEGQGDVPTPKQFVADVKNLYPSSSPYTRNWDKLVGEIKEEEKNEKLEGDAALNRLFQQIYSDGSDEVKRAMNKSFMESGGTVLSTNWSDVGKRKVEINPPDDMEWKKY
- binding [3]: binds
- binding [4]: no binding
